In assay [1] the target is inositol 1,4,5-triphosphate receptor 1 (IP3R1) (mouse (endogenous in 3T3-L1)) (UniProt P11881). Put plainly: co-IP; anti-IP3R1 antibody on 1 mg total lysate of 3T3-L1 cells before (day 0) and 7 days after adipogenic differentiation, 4°C overnight, Mag Sepharose Xtra beads, washed with TBST (50 mM Tris-HCl, 150 mM NaCl, 0.1% Tween-20, pH 7.4), eluted with 2% SDS; Western blot for GRP75 and VDAC1.

By UniProt entry, the sequences of proteins in these tests, tags left out. Where a name states a change or a piece, a line headed by the entry shows the natural chain unless it says otherwise. Residues count along the entry.
UniProt P11881: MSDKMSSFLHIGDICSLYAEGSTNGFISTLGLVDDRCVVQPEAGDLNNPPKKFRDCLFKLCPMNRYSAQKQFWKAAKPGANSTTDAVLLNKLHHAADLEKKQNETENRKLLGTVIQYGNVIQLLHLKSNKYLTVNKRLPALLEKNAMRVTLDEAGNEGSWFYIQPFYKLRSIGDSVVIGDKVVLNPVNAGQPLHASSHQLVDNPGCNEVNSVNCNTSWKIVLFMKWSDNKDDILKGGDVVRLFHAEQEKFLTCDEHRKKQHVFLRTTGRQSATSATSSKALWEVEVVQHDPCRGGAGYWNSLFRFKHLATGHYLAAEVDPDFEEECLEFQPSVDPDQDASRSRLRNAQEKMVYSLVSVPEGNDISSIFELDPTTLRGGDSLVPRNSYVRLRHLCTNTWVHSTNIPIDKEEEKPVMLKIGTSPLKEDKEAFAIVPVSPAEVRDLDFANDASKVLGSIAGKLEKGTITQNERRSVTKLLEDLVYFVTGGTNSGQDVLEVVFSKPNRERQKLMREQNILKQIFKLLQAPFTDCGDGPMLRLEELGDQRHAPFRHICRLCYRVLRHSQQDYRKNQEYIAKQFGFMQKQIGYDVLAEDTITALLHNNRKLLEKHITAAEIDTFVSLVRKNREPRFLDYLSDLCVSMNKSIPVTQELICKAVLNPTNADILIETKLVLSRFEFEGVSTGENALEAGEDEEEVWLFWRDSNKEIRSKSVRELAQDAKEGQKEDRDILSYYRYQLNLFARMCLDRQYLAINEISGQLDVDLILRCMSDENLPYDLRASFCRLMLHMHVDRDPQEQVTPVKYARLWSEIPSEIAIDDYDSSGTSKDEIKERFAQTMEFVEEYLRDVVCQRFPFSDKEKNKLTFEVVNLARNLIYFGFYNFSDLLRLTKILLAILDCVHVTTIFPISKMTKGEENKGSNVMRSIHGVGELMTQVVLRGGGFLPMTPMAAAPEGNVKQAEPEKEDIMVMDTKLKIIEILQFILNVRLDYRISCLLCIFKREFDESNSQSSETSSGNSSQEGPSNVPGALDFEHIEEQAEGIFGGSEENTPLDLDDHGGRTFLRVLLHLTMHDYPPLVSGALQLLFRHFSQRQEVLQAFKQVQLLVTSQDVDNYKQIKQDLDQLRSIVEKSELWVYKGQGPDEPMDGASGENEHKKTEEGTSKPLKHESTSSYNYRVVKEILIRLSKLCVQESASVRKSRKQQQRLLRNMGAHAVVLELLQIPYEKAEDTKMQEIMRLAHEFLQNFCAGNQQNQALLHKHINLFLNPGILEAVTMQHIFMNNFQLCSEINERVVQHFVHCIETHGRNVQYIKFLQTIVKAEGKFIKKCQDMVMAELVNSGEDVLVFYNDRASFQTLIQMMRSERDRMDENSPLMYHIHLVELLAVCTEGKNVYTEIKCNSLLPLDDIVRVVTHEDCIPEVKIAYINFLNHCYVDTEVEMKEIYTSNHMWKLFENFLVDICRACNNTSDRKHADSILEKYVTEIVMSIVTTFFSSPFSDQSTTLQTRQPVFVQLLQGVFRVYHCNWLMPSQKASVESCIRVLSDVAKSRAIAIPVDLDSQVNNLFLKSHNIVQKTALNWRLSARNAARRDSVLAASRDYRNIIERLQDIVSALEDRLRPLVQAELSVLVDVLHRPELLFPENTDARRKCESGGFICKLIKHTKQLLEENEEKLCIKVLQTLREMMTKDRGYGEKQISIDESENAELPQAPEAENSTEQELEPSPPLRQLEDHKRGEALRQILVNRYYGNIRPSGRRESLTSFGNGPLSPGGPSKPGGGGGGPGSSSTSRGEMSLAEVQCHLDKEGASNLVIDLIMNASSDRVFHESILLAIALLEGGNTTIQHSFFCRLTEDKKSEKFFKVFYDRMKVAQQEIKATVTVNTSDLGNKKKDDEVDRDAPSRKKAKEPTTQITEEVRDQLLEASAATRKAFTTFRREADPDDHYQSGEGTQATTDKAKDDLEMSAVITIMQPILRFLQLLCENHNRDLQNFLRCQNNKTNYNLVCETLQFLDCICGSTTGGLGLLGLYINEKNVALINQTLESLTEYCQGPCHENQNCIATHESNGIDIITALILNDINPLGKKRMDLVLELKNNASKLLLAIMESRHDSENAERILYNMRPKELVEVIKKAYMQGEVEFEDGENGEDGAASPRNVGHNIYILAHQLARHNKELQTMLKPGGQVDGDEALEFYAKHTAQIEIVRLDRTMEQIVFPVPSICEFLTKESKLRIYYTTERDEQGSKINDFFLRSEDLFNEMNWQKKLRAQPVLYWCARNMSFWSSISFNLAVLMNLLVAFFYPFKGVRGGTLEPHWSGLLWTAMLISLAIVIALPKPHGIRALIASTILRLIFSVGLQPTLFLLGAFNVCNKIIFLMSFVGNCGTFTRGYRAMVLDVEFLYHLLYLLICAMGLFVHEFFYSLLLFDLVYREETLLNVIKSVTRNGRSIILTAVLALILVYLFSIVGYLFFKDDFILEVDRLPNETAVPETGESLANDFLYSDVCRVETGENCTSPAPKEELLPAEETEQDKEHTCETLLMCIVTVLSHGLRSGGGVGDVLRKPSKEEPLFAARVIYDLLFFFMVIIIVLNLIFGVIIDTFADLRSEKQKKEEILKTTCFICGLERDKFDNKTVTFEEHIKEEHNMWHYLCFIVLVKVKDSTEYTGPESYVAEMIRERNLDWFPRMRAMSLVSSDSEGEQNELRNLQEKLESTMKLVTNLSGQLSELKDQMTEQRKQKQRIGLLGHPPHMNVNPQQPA
UniProt P38647, residues 47-679: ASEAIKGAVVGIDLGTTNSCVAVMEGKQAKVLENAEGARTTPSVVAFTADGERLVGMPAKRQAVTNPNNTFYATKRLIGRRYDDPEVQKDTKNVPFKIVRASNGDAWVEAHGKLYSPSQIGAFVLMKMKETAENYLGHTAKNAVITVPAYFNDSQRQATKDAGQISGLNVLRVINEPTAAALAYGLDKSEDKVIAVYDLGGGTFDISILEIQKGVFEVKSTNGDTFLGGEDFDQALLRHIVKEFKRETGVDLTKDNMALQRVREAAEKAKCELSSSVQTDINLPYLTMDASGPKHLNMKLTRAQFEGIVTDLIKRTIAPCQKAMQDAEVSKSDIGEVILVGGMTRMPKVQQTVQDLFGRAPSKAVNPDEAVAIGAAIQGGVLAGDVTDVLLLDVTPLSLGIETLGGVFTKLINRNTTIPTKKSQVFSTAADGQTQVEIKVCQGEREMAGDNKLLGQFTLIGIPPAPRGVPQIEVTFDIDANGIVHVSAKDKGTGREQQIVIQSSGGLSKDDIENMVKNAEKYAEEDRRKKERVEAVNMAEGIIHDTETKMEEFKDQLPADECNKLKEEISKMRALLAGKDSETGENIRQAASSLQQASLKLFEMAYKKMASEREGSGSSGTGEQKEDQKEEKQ
UniProt Q60932: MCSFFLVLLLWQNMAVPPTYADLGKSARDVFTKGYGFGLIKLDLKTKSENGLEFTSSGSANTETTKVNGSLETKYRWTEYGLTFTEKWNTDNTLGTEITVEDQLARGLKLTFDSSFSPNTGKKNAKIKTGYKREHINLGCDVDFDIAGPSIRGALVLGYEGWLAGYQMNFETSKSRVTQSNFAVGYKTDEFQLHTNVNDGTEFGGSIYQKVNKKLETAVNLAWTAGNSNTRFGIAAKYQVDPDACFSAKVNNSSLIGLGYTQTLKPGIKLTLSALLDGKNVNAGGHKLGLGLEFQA

Assay [2] addresses glucose-regulated protein 75 (GRP75) (mouse (endogenous in 3T3-L1)) (UniProt P38647). Briefly: co-IP; reciprocal: anti-GRP75 antibody on 1 mg total lysate of 3T3-L1 cells before (day 0) and 7 days after adipogenic differentiation, 4°C overnight, Mag Sepharose Xtra beads, washed with TBST (50 mM Tris-HCl, 150 mM NaCl, 0.1% Tween-20, pH 7.4), eluted with 2% SDS; Western blot for IP3R1 and …. (In general: In western blotting, separated proteins are transferred to a membrane and probed.)

No constants are given. Whether binding was seen depends on the method and setting. In cells and extracts the contact can be indirect. A result given as binding can be weak or reduced; the word gives no strength.

Regarding “voltage-dependent anion channel 1 (VDAC1) (from UniProt Q60932)”, the binding entry in assay [1] and in assay [2] was “binds” each time.

The values are drawn from PMC9504280.
